Laboratory results from PubChem BioAssay AID1347075 (National Center for Advancing Translational Sciences (NCATS), 2019).
About 5,500 (1.4%) of roughly 400,000 compounds were called active. Inconclusive means that the source gave no clear call. Such entries were picked first, then a sample of the others. Calls follow the shape of the dose curve; as a rule, active = well fitted cell-killing curve with a large enough effect; inconclusive = small, poorly fitted or top-dose-only effect, or effect the other way; inactive = flat fitted curve, though single readings scatter. Where the call is inconclusive, the potency comes from a doubtful curve fit.

experiment: qHTS assay for MDR1-selective chemotherapeutics: Primary screen using the parental adenocarcinoma cell KB-3-1; conditions: KB-3-1 viability, CellTiter-Glo ATP luminescence, 72 h; activity change, negative = cytotoxic: at 46.1 µM (top of the series); also: nearly all actives have a fitted effect of over 60% in size
Outline: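 KB-3-1 parental drug-naive adenocarcinoma cells in DMEM/10% FBS, incubated 72 h at 37 C with pin-transferred compounds across a concentration series. Viability by CellTiter-Glo luminescence; concentration-response curves fitted after normalization.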
% is scaled to controls: 0 for no effect and ±100 for the full control effect; potency is read from the fitted curve at half-maximal effect.

With `Cc1ccc2c(CN(C)Cc3ccccc3)cc(=O)oc2c1C` as the compound, how does the Potency read?
Its Potency is inconclusive: 18.4 µM [cytotoxic, partial curve].

With `C/C(=N/NC(=O)C1CCN(S(=O)(=O)c2ccc(C)cc2)CC1)c1cccc([N+](=O)[O-])c1` as the compound, how does the Potency read?
Its Potency is “inactive”.

Which Potency does the source give for `C[C@H](CO)N1C[C@H](C)[C@H](CN(C)Cc2ccc(-c3ccccc3)cc2)Oc2ccc(NS(=O)(=O)c3ccccc3)cc2CC1=O` here?
Its Potency is inconclusive: 29.1 µM [cytotoxic, single point].

With `COc1ccc(CN2[C@@H](CC(C)=O)c3cc(C(F)(F)F)ccc3S2(=O)=O)cc1` as the compound, how does the Potency read?
Its Potency is inconclusive: 29.1 µM [cytotoxic, single point].

With `COc1ccc(-c2nc3ccc(Br)cn3c2Cc2ccccc2C(F)(F)F)cc1OC` as the compound, how does the Potency read?
The Potency was inconclusive: 23.1 µM [cytotoxic, single point].

With `CC(=O)C1CCC2C(CCC3=CC(=O)CCC32)C1` (stereo unspecified) as the compound, how does the Potency read?
Its Potency is inconclusive: 11.6 µM [cytotoxic, partial curve, poor fit].

Which Potency does the source give for `COc1ccccc1Nc1c2c(nc3ccc(NC(=O)c4ccccc4F)cc13)CCCC2` here?
The Potency was inconclusive: 25.9 µM [cytotoxic, single point].

With `COc1ccc(-n2cc(CNC3CCC(O)CC3)c(-c3cccc(F)c3)n2)cc1` (stereo unspecified) as the compound, how does the Potency read?
Its Potency is inconclusive: 9.2 µM [cytotoxic, partial curve, poor fit].

With `O=C(CN1CCCCC1)Nc1cc(Cl)ccc1Oc1ccccc1` as the compound, how does the Potency read?
The Potency was inconclusive: 14.6 µM [cytotoxic, partial curve].

Which Potency does the source give for `Cc1cccc(-c2noc(-c3ccccc3OCC(=O)Nc3ccccc3[N+](=O)[O-])n2)c1` here?
The Potency was “inactive”.

With `CCC(=O)N1c2ccc(S(=O)(=O)CCC(=O)NCc3cccs3)cc2CC1C` (stereo unspecified) as the compound, how does the Potency read?
The Potency was inconclusive: 14.6 µM [cytotoxic, partial curve].

With `O=C(NCc1ccc(Cl)cc1)C(=O)N/N=C/c1ccc(Br)cc1` as the compound, how does the Potency read?
Its Potency is “inactive”.

For `O=C(O)COCC(=O)Nc1ccc(-n2nc(C(F)(F)F)cc2-c2cccs2)cc1`, which Potency is on record?
The Potency was inconclusive: 1.84 µM [rising, partial curve, poor fit].

Which activity change, negative = cytotoxic does the source give for `CC(C)S(=O)(=O)c1csc(C(=O)Nc2ccc(F)cc2)c1N` here?
Its activity change, negative = cytotoxic is inconclusive: -38.1%.

For `CCOC(=O)C1(C)CCN1C(=O)c1ccc(C#N)cc1` (stereo unspecified), which Potency is on record?
The Potency was “inactive”.

Which Potency does the source give for `O=c1c2c3c(sc2ncn1/N=C/c1ccc([N+](=O)[O-])o1)CCCC3` here?
The Potency was active: 20.6 µM.

Which Potency does the source give for `CCCCN(C)Cc1cc(=O)oc2ccc3ccccc3c12` here?
The Potency was inconclusive: 20.6 µM [rising, partial curve, poor fit].

With `O=C(COc1ccc(/C=N/NS(=O)(=O)c2ccccc2)cc1)N1CCOCC1` as the compound, how does the Potency read?
Its Potency is “inactive”.

Which Potency does the source give for `O=C(Cn1nc(-c2ccccc2Cl)ccc1=O)Nc1ccccc1-c1ccccc1` here?
The Potency was “inactive”.

With `Cn1c(=O)c2c(nc(N/N=C/c3ccc(OC(=O)c4ccco4)cc3)n2Cc2ccccc2Cl)n(C)c1=O` as the compound, how does the Potency read?
Its Potency is inconclusive: 23.1 µM [cytotoxic, partial curve].

With `O=C(N/N=C/c1ccc(OCc2ccccc2)cc1)c1ccncc1` as the compound, how does the Potency read?
The Potency was “inactive”.

For `COc1ccc(NC(=O)CN2C(=O)NC(C)(c3ccc(C)cc3)C2=O)cn1` (stereo unspecified), which Potency is on record?
The Potency was inconclusive: 16.4 µM [rising, partial curve, poor fit].

With `CCCn1cc(S(=O)(=O)c2ccc(OC)cc2)c(=O)c2cc(F)c(N3CCCC(C)C3)cc21` (stereo unspecified) as the compound, how does the Potency read?
The Potency was inconclusive: 29.1 µM [cytotoxic, single point].

With `CCCCn1c(N)c(N(CC(C)C)C(=O)c2c(-c3ccccc3)noc2C)c(=O)[nH]c1=O` as the compound, how does the Potency read?
The Potency was inconclusive: 2.91 µM [rising, full curve].

Which Potency does the source give for `O=C1c2ccccc2C(=O)N1CCCCSc1nnc(-c2ccc(OC(F)F)cc2)o1` here?
The Potency was “inactive”.

Which Potency does the source give for `O=C(NCCCN1CCN(c2ccccc2F)CC1)Nc1ccccc1[N+](=O)[O-]` here?
The Potency was inconclusive: 11.6 µM [cytotoxic, partial curve, poor fit].

For `CCOc1ccc2nc(NC(=O)c3cnc(C)cn3)sc2c1`, which Potency is on record?
Its Potency is “inactive”.

With `COc1ccc(CNC(=O)C(C)Sc2nc3ccccc3c(=O)n2CC2CCCO2)cc1` (stereo unspecified) as the compound, how does the Potency read?
The Potency was “inactive”.

For `CCc1cccc(NC(=O)CCc2c(C)nn(-c3ccc(N4CCOCC4)nn3)c2C)c1`, which Potency is on record?
Its Potency is “inactive”.

For `COc1ccc(/C=C/C2=NNC(=O)CC2)cc1`, which Potency is on record?
The Potency was active: 1.46 µM.

For `CCOc1ccc(CCNC(=O)C2CCC(=O)N2C2CCCCC2)cc1OCC` (stereo unspecified), which Potency is on record?
The Potency was “inactive”.

With `O=C(CSc1n[nH]c(-c2cccnc2)n1)Nc1ccc(Cl)cc1` as the compound, how does the Potency read?
Its Potency is inconclusive: 11.6 µM [rising, single point].

Which Potency does the source give for `COc1cc(-c2nc(C(=O)NC3CCCCC3)cc3c2[nH]c2ccccc23)cc(OC)c1OC` here?
The Potency was “inactive”.

For `CC1=C(C(=O)N2CCOCC2)CC(CC(=O)NC2CCCCC2)C(=O)N1Cc1ccccc1` (stereo unspecified), which Potency is on record?
The Potency was inconclusive: 29.1 µM [rising, single point].

With `O=C1c2ccccc2NC(c2c(Cl)cccc2Cl)N1Cc1ccccc1` (stereo unspecified) as the compound, how does the Potency read?
The Potency was inconclusive: 29.1 µM [cytotoxic, single point].

For `COc1ccc(C(=O)C(CN2CCOCC2)c2ccccc2)cc1F` (stereo unspecified), which Potency is on record?
The Potency was inconclusive: 16.4 µM [cytotoxic, single point].

With `Cc1cc(NC(=O)CSc2nnc(-c3ccncc3)n2-c2ccc(F)cc2)no1` as the compound, how does the Potency read?
Its Potency is inconclusive: 29.1 µM [cytotoxic, single point].

Which Potency does the source give for `O=C(COC(=O)c1ccccc1C(=O)c1ccccc1)Nc1cccc([N+](=O)[O-])c1` here?
The Potency was “inactive”.

With `COc1ccccc1N(C)S(=O)(=O)c1ccc(C(=O)OCC(=O)N2CCC2)cc1` as the compound, how does the Potency read?
The Potency was inconclusive: 18.4 µM [cytotoxic, single point].

Which Potency does the source give for `Cc1nc2ccccc2c2oc(C(=O)NCC3COc4ccccc4O3)cc12` (stereo unspecified) here?
The Potency was “inactive”.

For `CC(=O)N1CCN(C(=O)CN2C(=O)NC(C)(c3ccc4ccccc4c3)C2=O)CC1` (stereo unspecified), which Potency is on record?
Its Potency is “inactive”.

Which Potency does the source give for `CCOC(=O)N1CCC(NS(=O)(=O)c2ccc(NC(C)=O)c(Cl)c2)CC1` here?
Its Potency is inconclusive: 29.1 µM [cytotoxic, single point].

Which Potency does the source give for `COCc1cc(C)nc2c1C(=O)NC(c1ccc(Br)cc1)N2Cc1ccccc1` (stereo unspecified) here?
Its Potency is “inactive”.

Which Potency does the source give for `CN(C)c1ccc(C=NN2CCCCCC2)cc1` here?
Its Potency is inconclusive: 29.1 µM [rising, single point].

With `COc1ccc(C(=O)N=c2sc3c(C)ccc(OC)c3n2C)cc1` as the compound, how does the Potency read?
The Potency was active: 9.2 µM.

With `C=CCn1c(=O)c(C(=O)NCc2ccc(Cl)cc2)c(O)c2ccccc21` as the compound, how does the Potency read?
Its Potency is inconclusive: 29.1 µM [cytotoxic, single point].

With `Oc1cc(-c2ccc(N3CCCCC3)nc2)cc2cccnc12` as the compound, how does the Potency read?
The Potency was active: 5.17 µM.

With `CC(=O)NCCNC(=O)[C@H](Cc1ccccc1)NC(=O)c1cccs1` as the compound, how does the Potency read?
Its Potency is “inactive”.

With `CCOc1cc(Br)c(C=O)cc1OCC` as the compound, how does the Potency read?
The Potency was inconclusive: 29.1 µM [cytotoxic, single point].

For `Cc1ccccc1CNC(=O)C1CCN(c2nnc(N3CCCC3=O)s2)CC1`, which Potency is on record?
The Potency was “inactive”.

Which Potency does the source give for `Cc1csc(NCC(=O)c2c[nH]c3ccccc23)n1` here?
Its Potency is “inactive”.

Which Potency does the source give for `COc1ccc(C(=O)N2CCOC2CNC(=O)C(=O)NCc2ccc(Cl)cc2)cc1` (stereo unspecified) here?
The Potency was “inactive”.

With `CCCC#Cc1ccc2c(c1)O[C@H](CN(C)S(=O)(=O)c1cccc(OC)c1)[C@H](C)CN([C@H](C)CO)S2(=O)=O` as the compound, how does the Potency read?
The Potency was inconclusive: 29.1 µM [cytotoxic, single point].

With `CNC(=S)NN=C(C)CCCC(C)=NNC(=S)NC` as the compound, how does the Potency read?
Its Potency is inconclusive: 1.84 µM [rising, full curve, poor fit].

Which Potency does the source give for `O=C(COc1ccc(C(=O)c2ccc(F)cc2)cc1)NCc1ccc(F)cc1` here?
Its Potency is active: 4.11 µM.

For `Cc1ccc(-n2nnnc2SCC(=O)c2cc(C)n(CC3CCCO3)c2C)cc1` (stereo unspecified), which Potency is on record?
Its Potency is “inactive”.

For `Nc1cccc2cc(-c3ccccc3)oc12`, which Potency is on record?
Its Potency is inconclusive: 2.91 µM [rising, full curve].

For `O=C(Nc1ccc(NC(=O)c2ccc([N+](=O)[O-])o2)cc1Cl)c1ccco1`, which Potency is on record?
The Potency was active: 18.4 µM.

For `CC(C)COc1ccc(C(=O)OC2CC(C)(C)OCC2CN(C)C)cc1` (stereo unspecified), which Potency is on record?
The Potency was inconclusive: 20.6 µM [cytotoxic, partial curve, poor fit].

With `CCOC(=O)CN(C(=O)c1snc(C(N)=O)c1N)C(C(=O)NC1CCCCC1)c1ccc(F)cc1` (stereo unspecified) as the compound, how does the Potency read?
Its Potency is inconclusive: 3.26 µM [cytotoxic, full curve, poor fit].

For `CCN(CCc1ccccc1)c1ccc2c(c1)C1CC2CCN1Cc1ccccc1` (stereo unspecified), which Potency is on record?
The Potency was inconclusive: 32.6 µM [cytotoxic, single point].

With `C[C@]12CC[C@H]3[C@@H](CCC4=CC(=O)CC[C@@]43C)[C@@H]1CC[C@@H]2C(=O)CO` as the compound, how does the Potency read?
The Potency was inconclusive: 29.1 µM [cytotoxic, partial curve, poor fit].

Which Potency does the source give for `COc1cccc(C(=O)N2CCC[C@H]2C(=O)N2CCC[C@H]2C(=O)NCc2ccncc2)c1` here?
The Potency was “inactive”.

Which Potency does the source give for `Cc1ccc2cc(CN(Cc3ccco3)C(=O)NCc3ccccc3)c(=O)[nH]c2c1C` here?
The Potency was “inactive”.

With `Cc1nnc(NC(=O)c2ccc3c(c2)C(=O)N(CCC(C)C)C3=O)s1` as the compound, how does the Potency read?
The Potency was inconclusive: 29.1 µM [cytotoxic, single point].

Which Potency does the source give for `COc1ccc2c(c1)C=CC1(O2)N(CCO)c2ccccc2C1(C)C` (stereo unspecified) here?
Its Potency is inconclusive: 16.4 µM [cytotoxic, single point].

For `CCOc1ccccc1NC(=O)COC(=O)C1CCC(=O)N1` (stereo unspecified), which Potency is on record?
Its Potency is “inactive”.

With `Cc1cc(C)c(OCCCCNCc2ccccc2)c(Cl)c1` as the compound, how does the Potency read?
Its Potency is inconclusive: 29.1 µM [cytotoxic, single point].

For `Cn1cc(CNCc2cn(C)nc2-c2ccc(C3CCCCC3)cc2)cn1`, which activity change, negative = cytotoxic is on record?
Its activity change, negative = cytotoxic is inconclusive: -17.5%.

For `Cc1ccc(NC(C(=O)c2ccccc2)c2ccccc2)cc1` (stereo unspecified), which Potency is on record?
Its Potency is inconclusive: 10.3 µM [cytotoxic, partial curve].

Which Potency does the source give for `CC(C)c1cc(C(=O)N2CCCC(CCC(=O)NCc3ccccc3F)C2)n(C)n1` (stereo unspecified) here?
The Potency was inconclusive: 18.4 µM [cytotoxic, partial curve, poor fit].
